These are yes or no findings as the source states them, for the method shown. In cells and extracts the contact can be indirect. Binding calls can cover weak binding; strength is not graded here. Tags and fused reporters may be left off the sequences shown.
B1: Sep7-GFP (C. albicans septin Sep7/Shs1 tagged at its chromosomal locus) (protein, UniProt Q59VX8 1-670)
chain: MSRFDYRNTSKNTSVVDPDHSSPIINYRKDAKKGIKFTFMVVGESGTGKTTFINSLLNKKVLNHRYEKLSPTVGDTKTLMFTSAKSVALPNTSILTKNEFNPRTINEEPGIALTETHIEIIDDDNQKLLLNIIDTPGFGENLNNELCFIEIENYLKQQFDLVLAEETRIKRNPRFVDTRVHVMLYFITPTGHGLREIDIQCMKRLSKYVNIIPVIGKADSFTLNELQHFKQQIRIDIQKFNVPTFQFDNSLNDYDEDEDYDLIQECKFLTNLQPFAVVTSEDVFEVRESTTSTKGNNDKPKIIRARKYPWGLVDINDTRYSDFPILKSVLLGSHLQDLKDLTHDFLYETYRTERLTKVTGNGQAFDDEENEDAEFHDTVEHQLNDSNRGVGGDDNNNNNNNNNNASTIPSMSNLAQLTTSTNEHDASHIDNNSITSTSSSIKKSTSMLIDDHPSSSPKLKNISSFTSSTSTVSLEGGEKEGGHHDRGANSTSTNNNNNNNAFKRLSIGPQRNQLRQISETVPYVLRHERILERQQKLEEMEQASARELANRAALLEKKAAQLKAKEKALRQLELNRQKQEESATSSLHRKDSDISGSVQSGGVDDGKSESTNNNNNNRNGYGYGHGHGHGQSHEYDNSEYHHDDSTPNYETSRLQKDETLTDLHSIVSNH
B2: Cdc11 (C. albicans septin, endogenous) (protein, UniProt G1UB61 1-402)
chain: MNYSTENVSSAALRKRKTLKKSINFSIMIIGESGSGRSTLINTLCGGNSIVPTSSTATQDPFTKKLTLRHENVELEDNEGHKISLNIIDTPNFANSINCDDDFKIIVDFIRHQFDEVLLEESRVKRNPRFKDGRIHVLIYMINPTGHGLSDIDVKFLQHVNNLVNIIPIISKADSLTPKELKLNKELILEDLNNYGINFYKFNEYDYEQDYIDEEIIEYNKYLNSLIPFAIIGANEYRSNPNGSEDEDDILKLRILNKDFKPIDIDNAEINDFTILKNVLLVTHLNEFKDITHDSIYENYRTEALSGKQFQYVNKDSAKQEISESDYLMKEEQIKLEEERLRKFEERVHQDLINKRKELLERENELKEIEKRLLAEGLKFDENGDVVKVHEEESSENEVKVI

Molecular target: Cdc10-mCherry (C. albicans septin Cdc10 tagged at its chromosomal locus) (Candida albicans)
Experiment: co-IP; RFP-Trap on Cdc10-mCherry from 1 mg of yeast or hyphal extract of ACE2, ace2Δ/Δ, ace2L/ace2Δ and ace2S/ace2Δ strains; lysis buffer 50 mM Tris-HCl pH 7.8, 250 mM potassium acetate, 2 mM MgCl2, 0.5 mM EGTA, 0.8% Triton X-100; washes with 500 mM and 1 M potassium acetate; blots with anti-RFP, anti-GFP, anti-Cdc11

| Binder | binding |
| --- | --- |
| B1 | binds |
| B2 | binds |

Reference: PMC4398349
